According to PMC10112965:
These are yes or no findings as the source states them, for the method shown. In cells and extracts the contact can be indirect. A yes stands for co-enrichment or nearness to the bait. Other partners may have been found. No binding means not detected with the bait.

Chains of the proteins cited; added tags and fusions are not shown.
UniProt Q14839: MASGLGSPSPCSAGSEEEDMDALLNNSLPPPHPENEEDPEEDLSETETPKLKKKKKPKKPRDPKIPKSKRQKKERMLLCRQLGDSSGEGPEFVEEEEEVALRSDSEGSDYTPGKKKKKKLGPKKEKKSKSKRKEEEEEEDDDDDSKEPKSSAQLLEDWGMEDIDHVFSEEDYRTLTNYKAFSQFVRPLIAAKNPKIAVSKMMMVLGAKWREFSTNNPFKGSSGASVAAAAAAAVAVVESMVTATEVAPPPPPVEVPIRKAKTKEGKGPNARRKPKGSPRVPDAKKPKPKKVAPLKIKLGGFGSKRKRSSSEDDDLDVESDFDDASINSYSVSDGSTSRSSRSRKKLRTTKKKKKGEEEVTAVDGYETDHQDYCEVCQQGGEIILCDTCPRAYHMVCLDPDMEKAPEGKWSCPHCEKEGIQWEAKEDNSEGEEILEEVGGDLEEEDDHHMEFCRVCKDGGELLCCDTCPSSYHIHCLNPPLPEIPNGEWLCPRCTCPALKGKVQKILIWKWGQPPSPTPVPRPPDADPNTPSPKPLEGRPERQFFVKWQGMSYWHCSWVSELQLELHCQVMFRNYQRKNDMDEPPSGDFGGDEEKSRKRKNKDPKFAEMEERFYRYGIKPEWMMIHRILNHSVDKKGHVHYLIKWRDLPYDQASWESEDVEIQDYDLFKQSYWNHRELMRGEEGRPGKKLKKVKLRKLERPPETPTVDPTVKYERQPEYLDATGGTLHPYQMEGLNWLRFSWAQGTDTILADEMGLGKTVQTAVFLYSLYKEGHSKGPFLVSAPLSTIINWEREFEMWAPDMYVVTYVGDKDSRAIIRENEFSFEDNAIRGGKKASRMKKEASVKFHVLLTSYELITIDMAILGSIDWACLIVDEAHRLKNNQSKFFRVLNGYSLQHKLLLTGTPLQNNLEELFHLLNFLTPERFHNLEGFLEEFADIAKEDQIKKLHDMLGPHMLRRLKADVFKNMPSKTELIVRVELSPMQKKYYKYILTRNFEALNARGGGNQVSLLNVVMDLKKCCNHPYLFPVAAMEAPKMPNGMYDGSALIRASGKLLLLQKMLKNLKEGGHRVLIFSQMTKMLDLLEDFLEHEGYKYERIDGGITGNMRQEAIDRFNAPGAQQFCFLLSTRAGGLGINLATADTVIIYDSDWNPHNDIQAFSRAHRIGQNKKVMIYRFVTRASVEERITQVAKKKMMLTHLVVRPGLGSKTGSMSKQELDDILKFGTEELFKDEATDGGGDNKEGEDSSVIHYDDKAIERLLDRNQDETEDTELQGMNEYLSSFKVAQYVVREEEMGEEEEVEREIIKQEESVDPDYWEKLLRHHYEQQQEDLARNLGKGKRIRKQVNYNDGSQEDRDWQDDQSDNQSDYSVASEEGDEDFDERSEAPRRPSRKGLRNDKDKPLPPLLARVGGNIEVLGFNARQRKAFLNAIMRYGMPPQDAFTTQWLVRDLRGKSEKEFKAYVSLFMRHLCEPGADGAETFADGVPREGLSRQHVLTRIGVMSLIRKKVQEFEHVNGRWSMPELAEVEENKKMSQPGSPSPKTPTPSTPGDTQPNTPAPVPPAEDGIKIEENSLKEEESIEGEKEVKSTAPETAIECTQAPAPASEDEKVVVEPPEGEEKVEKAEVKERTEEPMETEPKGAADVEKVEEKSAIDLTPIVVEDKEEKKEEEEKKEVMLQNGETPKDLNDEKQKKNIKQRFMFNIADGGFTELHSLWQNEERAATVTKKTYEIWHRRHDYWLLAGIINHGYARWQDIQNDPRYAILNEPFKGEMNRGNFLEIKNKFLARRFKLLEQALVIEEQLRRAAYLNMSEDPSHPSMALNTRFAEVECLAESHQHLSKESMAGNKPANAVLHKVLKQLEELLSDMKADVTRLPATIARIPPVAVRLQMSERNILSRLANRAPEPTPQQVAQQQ
UniProt P52294: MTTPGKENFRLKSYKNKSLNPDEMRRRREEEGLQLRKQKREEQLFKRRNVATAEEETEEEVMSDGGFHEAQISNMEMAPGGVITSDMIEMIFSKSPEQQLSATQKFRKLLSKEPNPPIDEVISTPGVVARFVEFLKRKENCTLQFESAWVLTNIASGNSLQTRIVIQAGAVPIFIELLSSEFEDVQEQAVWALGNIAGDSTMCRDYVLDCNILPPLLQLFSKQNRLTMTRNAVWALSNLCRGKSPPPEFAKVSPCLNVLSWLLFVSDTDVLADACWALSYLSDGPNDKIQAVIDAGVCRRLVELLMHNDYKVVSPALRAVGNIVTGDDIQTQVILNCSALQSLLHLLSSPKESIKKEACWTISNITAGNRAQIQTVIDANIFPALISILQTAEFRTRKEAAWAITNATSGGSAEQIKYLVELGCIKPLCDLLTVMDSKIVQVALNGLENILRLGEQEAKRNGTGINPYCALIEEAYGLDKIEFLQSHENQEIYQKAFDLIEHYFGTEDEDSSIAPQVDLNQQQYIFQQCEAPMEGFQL
UniProt O15131: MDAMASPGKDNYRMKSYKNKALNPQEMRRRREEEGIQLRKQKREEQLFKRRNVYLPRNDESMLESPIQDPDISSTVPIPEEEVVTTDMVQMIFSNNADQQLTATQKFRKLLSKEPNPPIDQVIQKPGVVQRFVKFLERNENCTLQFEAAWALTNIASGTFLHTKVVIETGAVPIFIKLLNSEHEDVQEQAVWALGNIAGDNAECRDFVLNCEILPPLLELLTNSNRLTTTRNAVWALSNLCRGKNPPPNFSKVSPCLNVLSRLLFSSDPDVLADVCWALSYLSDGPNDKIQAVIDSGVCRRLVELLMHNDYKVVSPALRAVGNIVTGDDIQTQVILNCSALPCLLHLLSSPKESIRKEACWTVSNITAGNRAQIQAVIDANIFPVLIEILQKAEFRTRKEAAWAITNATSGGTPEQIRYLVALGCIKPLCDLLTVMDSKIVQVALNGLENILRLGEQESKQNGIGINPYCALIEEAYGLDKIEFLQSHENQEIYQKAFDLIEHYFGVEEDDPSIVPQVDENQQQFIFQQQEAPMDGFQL

biological target: C-terminal GFP-tagged CHD4 wild-type (human) (UniProt Q14839); experiment: affinity purification with mass spectrometry; GFP-Trap A on nuclear extract of stably transfected HEK 293 cells, 24 h doxycycline; beads not blocked; SDS gel slices, LC-MS/MS; control: binding control agarose beads

Row | Substance | binding
1 | importin α5 (from UniProt P52294 1-538) | binds
2 | importin α6 (from UniProt O15131 1-539) | binds
3 | importin α7 (from UniProt O60684 1-536) | binds
4 | importin β1 (from UniProt Q14974 1-876) | no binding
